Measured values published in article PMC11633376.

The chains behind the UniProt entries cited, without tags or fusion partners.
UniProt A0R0B3: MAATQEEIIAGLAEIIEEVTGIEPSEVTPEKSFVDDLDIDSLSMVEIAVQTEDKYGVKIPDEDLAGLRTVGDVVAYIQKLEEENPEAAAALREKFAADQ

Target: Mycobacterium smegmatis mycobacterial membrane protein large 5 (MmpL5) transporter (M. smegmatis) (UniProt A0QS80)
Experiment: cryo-EM structure; single-particle cryo-EM of the purified MmpL5 sample (2.0 mg/mL, 20 mM Na-HEPES pH 7.5, 0.005% LMNG) holding copurified endogenous AcpM; 2.81 Å; both purified

binding: binds
Substance: Mycobacterium smegmatis meromycolate extension acyl carrier protein M (AcpM) (from UniProt A0R0B3 1-99)

No constants are given. Whether binding was seen depends on the method and setting. Binding seen in cells or lysates may run through a third protein. Binding can be weak; no strength is given.
